{"source": "paper PMC2726434", "binders": {"B1": {"name": "Cdc10p (protein, UniProt P01129 1-767)", "chain": "MASANFIRQFELGNDSFSYQKRPEDEPSQPLSNRNINKLNDSSTLKDSSSRIFINSQVLRDGRPVELYAVECSGMKYMELSCGDNVALRRCPDSYFNISQILRLAGTSSSENAKELDDIIESGDYENVDSKHPQIDGVWVPYDRAISIAKRYGVYEILQPLISFNLDLFPKFSKQQQIESSSISKNLNTSSFNTRSPLRNHNFSNPSKSSKNGVHTINNMQSSPSPSSSFLLPLTQIDSQNVKRSNNYLSTSPPILEQRLKRHRIDVSDEDLHPSSQLNDNEASSLFPDTPRLNHSLSFVSLVSSLPPLDQNIMQDYHTSKDILTSIFLDVNFADSSALEAKLSDSLDLDVPIDELGHAALHWAAAVAKMPLLQALIHKGANPLRGNLTGETALMRSVLVTNHLNQNSFGDLLDLLYASLPCTDRAGRTVVHHICLTAGIKGRGSASRYYLETLLNWAKKHASGNNGYMLKDFINYLNHQDKNGDTALNIAARIGNKNIVEVLMQAGASAYIPNRAGLSVANFGIFVENALKQPEDSKQTKVSLMSENLSSKEKTAVPPRQKSRDIIASVTDVISSLDKDFQDEMAAKQSMIDSAYTQLRESTKKLSDLREQLHVSETQRTLFLELRQRCKNLMTSIEEQKSELSNLYESFDPNGIHDSLSLDADAPFTVNENNNKNLSIAELKFQVAAYERNEARLNELANKLWQRNSNIKSKCRRVVSLCTGVDESRVDSLLESLLQAVESDGQQGEVDMGRVAGFLRVVKEHQA"}, "B2": {"name": "Yox1p-HA (Yox1p C-terminally tagged with a 3HA epitope) (protein, UniProt P40923 1-201)", "chain": "MSLSDSPSKSGNTGKDLISNNEAKNHEDEETHQKKRRRRTTDAEATLLEQYFLKTPKPSLIERQELSKKLKSSMTPRELQIWFQNKRQSLRRSNCLSRNRLEGTGENSLLRRKSTLTLCETSTGQAELFFQSWPLHSQSVVGEMIHHEQDDYNKENKQQKVVDTTKDISRGSNGNEDSAAHQELEECARSLVELQQQCNDH"}}, "experiment_in_all_cases": "co-IP; anti-HA, anti-Cdc10p or anti-myc immunoprecipitates from S. pombe cell extracts, TAP purification buffers; 10% SDS-PAGE and Western blot with anti-HA, anti-myc and anti-Cdc10p antibodies", "key": {"[1]": {"biological_target": "T1, Yox1p-HA (Yox1p C-terminally tagged with a 3HA epitope) (S. pombe) (UniProt P40923)", "T1 sequence": "B2 chain"}, "[2]": {"biological_target": "T2, Res2p-myc (myc tagged Res2p) (S. pombe) (UniProt P41412)", "T2 sequence": "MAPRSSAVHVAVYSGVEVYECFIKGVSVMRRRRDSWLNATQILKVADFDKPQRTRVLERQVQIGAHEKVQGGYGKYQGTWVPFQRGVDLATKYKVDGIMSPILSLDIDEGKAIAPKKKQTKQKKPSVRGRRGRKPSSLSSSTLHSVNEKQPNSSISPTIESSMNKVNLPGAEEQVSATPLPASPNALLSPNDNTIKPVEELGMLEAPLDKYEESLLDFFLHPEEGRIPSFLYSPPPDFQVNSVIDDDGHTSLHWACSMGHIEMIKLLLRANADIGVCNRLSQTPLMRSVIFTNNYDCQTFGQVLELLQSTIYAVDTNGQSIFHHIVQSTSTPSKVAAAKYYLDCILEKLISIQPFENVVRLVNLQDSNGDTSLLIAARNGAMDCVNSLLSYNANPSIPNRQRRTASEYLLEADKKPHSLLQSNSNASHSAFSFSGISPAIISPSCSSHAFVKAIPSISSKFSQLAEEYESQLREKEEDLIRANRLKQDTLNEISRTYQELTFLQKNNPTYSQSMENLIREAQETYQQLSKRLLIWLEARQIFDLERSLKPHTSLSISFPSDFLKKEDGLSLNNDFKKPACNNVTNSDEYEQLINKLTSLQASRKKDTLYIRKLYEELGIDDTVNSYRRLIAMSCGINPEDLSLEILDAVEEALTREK"}, "[3]": {"biological_target": "T3, Cdc10p (S. pombe (endogenous in S. pombe cells)) (UniProt P01129)", "T3 sequence": "B1 chain"}}, "note": "No constants are given. Whether binding was seen depends on the method and setting. Binding seen in cells or lysates may run through a third protein. Some results given as binding are weak or reduced against the parent protein; the word gives no strength. Tags and fused reporters may be left off the sequences shown.", "data": [{"binder": "B1", "values": [{"measurement": "binding", "setting": "[1]", "value": "binds"}]}, {"binder": "B2", "values": [{"measurement": "binding", "setting": "[2]", "value": "binds"}, {"measurement": "binding", "setting": "[3]", "value": "binds"}]}]}
